# PubChem BioAssay AID1159578 | Peter MacCallum Cancer Centre, 2015
# Assay: 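Genome-wide hunt for genes controlling movement of lymphatic endothelial cells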 (primary screen)
# Cell system: human lymphatic endothelial cells
# Reagent: siRNA pool against human genes, 40 nM
# Time to read-out: 48 h after transfection
# Measurement: 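Cells stained with dye and imaged after a scratch; covered wound area and nuclei counted, duplicates averaged, migration set against mock wells and turned into a robust z-score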
# Scale: migration robust z-score: higher = faster migration into the scratch; migration relative to mock: higher = more scratch area covered than mock; nuclei per well: higher = more cells in the well
# Rule for the call: 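Pools averaging fewer than 3300 nuclei are never called; remaining pools count as changed when migration robust z lies outside -2 to 2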
# Meaning of the calls: active = migration changed; inactive = no migration change, or too few cells
# The deposit covers about 18,000 reagents; below is a part drawn at random. About 1,030 of all reagents (5.7%) count as active. 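Inactive calls also include pools with fewer than 3300 nuclei, whose migration was not assessed.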 Raw values vary from plate to plate and are shown uncorrected.
The first 7 entries, to show the layout:
gene symbol,migration robust z-score,migration class with cell-count check,migration relative to mock,"nuclei per well, duplicate mean",Outcome
GSR (GeneID 2936),-1.38,migration z between -2 and 2; enough cells,0.54,4958,inactive
SH3YL1 (GeneID 26751),-1.46,migration z between -2 and 2; enough cells,0.51,5350,inactive
MASP2 (GeneID 10747),0.08,migration z between -2 and 2; enough cells,0.82,5444,inactive
USP30 (GeneID 84749),-0.6,migration z between -2 and 2; enough cells,0.69,4925,inactive
B4GALT5 (GeneID 9334),0.05,migration z between -2 and 2; enough cells,0.82,4700,inactive
ZNF423 (GeneID 23090),-0.29,migration z between -2 and 2; enough cells,0.75,5344,inactive
PLD5 (GeneID 200150),1.94,migration z between -2 and 2; enough cells,1.18,5562,inactive

Main list, from the first entry:
gene symbol,migration robust z-score,migration class with cell-count check,migration relative to mock,"nuclei per well, duplicate mean",Outcome
GSR (GeneID 2936),-1.38,migration z between -2 and 2; enough cells,0.54,4958,inactive
SH3YL1 (GeneID 26751),-1.46,migration z between -2 and 2; enough cells,0.51,5350,inactive
MASP2 (GeneID 10747),0.08,migration z between -2 and 2; enough cells,0.82,5444,inactive
USP30 (GeneID 84749),-0.6,migration z between -2 and 2; enough cells,0.69,4925,inactive
B4GALT5 (GeneID 9334),0.05,migration z between -2 and 2; enough cells,0.82,4700,inactive
ZNF423 (GeneID 23090),-0.29,migration z between -2 and 2; enough cells,0.75,5344,inactive
PLD5 (GeneID 200150),1.94,migration z between -2 and 2; enough cells,1.18,5562,inactive
P2RX5 (GeneID 5026),-0.98,migration z between -2 and 2; enough cells,0.62,3880,inactive
MX2 (GeneID 4600),0.47,migration z between -2 and 2; enough cells,0.9,5008,inactive
ADGRG2 (GeneID 10149),1.66,migration z between -2 and 2; enough cells,1.12,5808,inactive
SEC61G (GeneID 23480),-0.57,migration z between -2 and 2; enough cells,0.74,5516,inactive
SLCO1A2 (GeneID 6579),-0.44,migration z between -2 and 2; enough cells,0.72,7369,inactive
POLDIP3 (GeneID 84271),0.54,migration z between -2 and 2; enough cells,1.02,6526,inactive
ARX (GeneID 170302),-0.83,migration z between -2 and 2; enough cells,0.64,5710,inactive
MED12 (GeneID 9968),0.8,migration z between -2 and 2; enough cells,0.96,6298,inactive
EDN3 (GeneID 1908),0.76,migration z between -2 and 2; enough cells,1.08,6615,inactive
WTAP (GeneID 9589),-0.06,migration z between -2 and 2; enough cells,0.87,6277,inactive
IFNGR1 (GeneID 3459),-0.7,migration z between -2 and 2; enough cells,0.67,6462,inactive
ACSM4 (GeneID 341392),1.02,migration z between -2 and 2; enough cells,1.16,6572,inactive
NTNG2 (GeneID 84628),-0.03,migration z between -2 and 2; enough cells,0.88,5223,inactive
CABYR (GeneID 26256),1.08,migration z between -2 and 2; enough cells,1.16,4925,inactive
GRIK5 (GeneID 2901),1.9,migration z between -2 and 2; enough cells,1.17,6470,inactive
GIMAP2 (GeneID 26157),1.21,migration z between -2 and 2; enough cells,1.2,5713,inactive
MRPS17 (GeneID 51373),-0.32,migration z between -2 and 2; enough cells,0.8,5676,inactive
MTO1 (GeneID 25821),0.6,migration z between -2 and 2; enough cells,0.92,5277,inactive
MAN2B2 (GeneID 23324),0.3,migration z between -2 and 2; enough cells,0.97,6444,inactive
FAM120C (GeneID 54954),0.5,migration z between -2 and 2; enough cells,1.02,6368,inactive
GFM2 (GeneID 84340),0.96,migration z between -2 and 2; enough cells,0.99,5566,inactive
SASS6 (GeneID 163786),0,migration z between -2 and 2; enough cells,0.88,5337,inactive
ORMDL3 (GeneID 94103),-0.06,migration z between -2 and 2; enough cells,0.86,4719,inactive
TAMM41 (GeneID 132001),1.44,migration z between -2 and 2; enough cells,1.25,6454,inactive
BPIFA2 (GeneID 140683),-0.19,migration z between -2 and 2; enough cells,0.84,5369,inactive
FIRRM (GeneID 55732),1.58,migration z between -2 and 2; enough cells,1.29,5582,inactive
NRSN1 (GeneID 140767),-1.21,migration z between -2 and 2; enough cells,0.57,6417,inactive
MRPS35 (GeneID 60488),-0.34,migration z between -2 and 2; enough cells,0.8,5144,inactive
CPNE8 (GeneID 144402),0.44,migration z between -2 and 2; enough cells,1,5799,inactive
YJEFN3 (GeneID 374887),0.34,migration z between -2 and 2; enough cells,0.98,6372,inactive
TMEM183BP (GeneID 653659),-1.57,migration z between -2 and 2; enough cells,0.47,4649,inactive
SSR2 (GeneID 6746),0.28,migration z between -2 and 2; enough cells,0.96,4506,inactive
DPYSL3 (GeneID 1809),0.83,migration z between -2 and 2; enough cells,0.97,6355,inactive
CDHR4 (GeneID 389118),-0.51,migration z between -2 and 2; enough cells,0.75,5430,inactive
LRRC61 (GeneID 65999),-1.43,migration z between -2 and 2; enough cells,0.51,5445,inactive
TLE6 (GeneID 79816),0.26,migration z between -2 and 2; enough cells,0.95,4460,inactive
CHM (GeneID 1121),-3.4,migration z below -2; enough cells,0.15,4096,active
MYH9 (GeneID 4627),-0.8,migration z between -2 and 2; enough cells,0.65,4338,inactive
RBAK (GeneID 57786),-1.73,migration z between -2 and 2; enough cells,0.44,6886,inactive
TSPY2 (GeneID 64591),-0.9,migration z between -2 and 2; enough cells,0.65,4400,inactive
HSD17B8 (GeneID 7923),0.83,migration z between -2 and 2; enough cells,0.96,6522,inactive
TEDC1 (GeneID 283643),0.86,migration z between -2 and 2; enough cells,1.1,5564,inactive
SERPIND1 (GeneID 3053),-1.22,migration z between -2 and 2; enough cells,0.57,4632,inactive
PBXIP1 (GeneID 57326),-1.72,migration z between -2 and 2; enough cells,0.44,7061,inactive
NUDT11 (GeneID 55190),-0.99,migration z between -2 and 2; enough cells,0.62,6481,inactive
FASTKD4 (GeneID 9238),1,migration z between -2 and 2; enough cells,1.14,6180,inactive
BAIAP2L1 (GeneID 55971),0.94,migration z between -2 and 2; enough cells,1.13,4938,inactive
PDCD4 (GeneID 27250),-0.86,migration z between -2 and 2; enough cells,0.66,4323,inactive
TIMM8A (GeneID 1678),0.62,migration z between -2 and 2; enough cells,0.92,6211,inactive
GLCE (GeneID 26035),2.16,migration z above 2; enough cells,1.22,5648,active
